Measurements taken from PubChem BioAssay AID504648 (National Center for Advancing Translational Sciences (NCATS), 2011).
The whole screen tested about 390,000 compounds, of which about 610 (0.16%) were called active. This list was built around the results that the source calls inconclusive (neither active nor inactive); the mix of calls is not that of the screen. Calls come from the whole dose curve; as a rule, active = well fitted inhibition curve with a large enough effect; inconclusive = small, poorly fitted or top-dose-only effect, or effect the other way, or another doubt; inactive = no such curve, though single readings can be large or run the other way. A potency beside an inconclusive call is a rough fit, not a confirmed value.

Assay: Nrf2 qHTS screen for inhibitors: counterscreen for cytotoxicity
Details: A549 ARE-Fluc cells, CellTiter-Fluor viability, 18-24 h; activity change, negative = cytotoxicity: at 46 µM (top of the series)
Summary of the method: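 A549 ARE_Fluc cells in 5% FBS OPTI-MEM were exposed to compounds in concentration-response for 18-24 h at 37 deg C. Viability was read by CellTiter-Fluor fluorescence (Ex 405/Em 525) after 30 min, before the luciferase read.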
% is set by controls: 0 for no effect and ±100 for the full control effect; potency is the fitted concentration of half-maximal effect.

Compound | activity change, negative = cytotoxicity | Potency
COc1ccccc1N1CCN(C(=O)CCc2nnc3ccc(N4CCC(C)CC4)nn23)CC1 | inactive: 3.11% | 
COCCSc1nnc(NC(=O)C2CC(=O)N(c3ccc(C)cc3)C2)s1 (stereo not drawn) |  | inconclusive: 2.91 µM [activator, partial curve, poor fit]
Cc1ccc(CSc2nc3ccncc3n2Cc2nc(-c3ccccc3C)oc2C)cc1 | inactive: -29% | 
CCc1nnc(N2C(=O)c3cccc4cccc(c34)C2=O)s1 | inactive: -7.61% | 
COc1ccc(-c2cc(C(=O)NCCc3ccccc3)c3c(-c4ccc(Cl)cc4)[nH]nc3n2)cc1 |  | inconclusive: 32.6 µM [falling, single point]
CS(=O)(=O)N(Cc1ccccc1)c1ccc(C(=O)N2CCc3ccccc3C2)cc1 |  | inconclusive: 18.4 µM [falling, partial curve, poor fit]
OCCCNc1ncnc2sc(-c3ccccc3)cc12 | inactive: 0.916% | 
Cc1ccc(Nc2nc(Nc3ccc(C)cc3)nc(SC3=NCCS3)n2)cc1 | inactive: -22.1% | 
O=C1NCCN1c1ncc([N+](=O)[O-])s1 | inactive: -5.66% | 
CCCc1nc2ccc(NC(=O)c3ccco3)cc2c(=O)n1Cc1ccc(Cl)cc1 |  | inconclusive: 29.1 µM [falling, single point]
CN(C)S(=O)(=O)c1cccc(NC(=O)c2ccc(N3CCOCC3)c([N+](=O)[O-])c2)c1 | inactive: -2.36% | 
COc1ccc(Cl)cc1NC(=O)C(C)N(C)Cc1ccc(C(F)(F)F)cc1 (stereo not drawn) | inactive: 13.9% | 
Nc1nc(SCC(=O)Nc2ccc(Oc3ccccc3)cc2)n[nH]1 | inactive: -5.62% | 
COC(=O)Cc1ccc(NC(=O)C(c2ccccc2)c2ccccc2)cc1 | inactive: 2.24% | 
CCOC(=O)c1cc(-c2ccccc2)sc1NC(=O)COC(=O)c1ccc(Cl)c(S(N)(=O)=O)c1 |  | inconclusive: 23.1 µM [falling, single point]
O=c1ccc(/C=C/c2ccccc2)nn1Cc1ccccc1 | inactive: -0.781% | 
Nc1c2c(nc3ccccc13)CSCC2 | inactive: -3.77% | 
Cc1cc(C)c2sc(N(CCCN(C)C)C(=O)c3ccc(S(=O)(=O)N(C)Cc4ccccc4)cc3)nc2c1 |  | inconclusive: 29.1 µM [falling, single point]
CC(=O)c1ccc(Cc2ncc(C(F)(F)F)cc2Cl)s1 |  | inconclusive: 14.6 µM [activator, partial curve, poor fit]
O=C(Oc1cccc2cccnc12)c1ccc2c(c1)OCCO2 | inactive: -1.55% | 
CCOC(=O)c1c(-c2ccccc2)oc2ccc(OCc3cccc(Br)c3)cc12 | inactive: -0.951% | 
CC(=O)c1sc(NC(=O)CCS(=O)(=O)c2ccccc2)nc1C |  | inconclusive: 23.1 µM [falling, single point]
CCOC(=O)C(C(=O)OCC)C(Nc1cccc(Br)c1)c1ccccc1 (stereo not drawn) |  | inconclusive: 10.3 µM [falling, single point]
Cc1ccc(C(C(=O)NCc2ccccc2)N(Cc2cccs2)C(=O)c2ccc3c(c2)OCCO3)cc1 (stereo not drawn) |  | inconclusive: 10.3 µM [falling, partial curve, poor fit]
NN/C(=C\[N+](=O)[O-])Nc1ccc(Cl)cc1 | inactive: -0.885% | 

Compound | activity change, negative = cytotoxicity | Potency
CCOC(=O)N1CCC(N2C(=O)c3ccccc3C2Nc2ccc(S(=O)(=O)N3CCOCC3)cc2)CC1 (stereo not drawn) |  | inconclusive: 7.31 µM [falling, partial curve, poor fit]
O=[N+]([O-])c1ccc(O)c(-c2ccnc3cc(-c4ccccc4)nn23)c1 |  | active: 16.4 µM
CCNc1nc(-c2cc(C)n(Cc3ccco3)c2C)cs1 | inactive: -8.46% | 
Cc1ccc(CS(=O)(=O)c2ncc(Cl)c(C(=O)Nc3ccc(OC(F)F)cc3)n2)cc1 |  | inconclusive: 32.6 µM [falling, partial curve, poor fit]
Cc1ccc(S(=O)(=O)N2CCOCC2)cc1C(=O)OCC(=O)N1CCCCC1 | inactive: 9.28% | 
COc1cccc(-n2c(=O)c3cc(OC)c(OC)cc3n(CC(=O)Nc3cc(C)[nH]n3)c2=O)c1 | inactive: -1.91% | 
COc1cccc(/C=C/C(=O)OCC(=O)NCCNC(=O)COC(=O)/C=C/c2cccc(OC)c2)c1 | inactive: -2.33% | 
Cc1nc(N2CCOCC2)nc(N2CCCCC2C)c1[N+](=O)[O-] (stereo not drawn) | inactive: -5.46% | 
COC(=O)c1ccc(Nc2c([N+](=O)[O-])c(=O)oc3ccccc23)cc1 |  | inconclusive: 25.9 µM [falling, single point]
Cc1nc(N)sc1C(=O)N/N=C/c1c[nH]c2ccccc12 |  | inconclusive: 20.6 µM [activator, partial curve, poor fit]
N#CC1=C(SCC(=O)Nc2ccc(C(=O)O)cc2)NC(=O)CC1c1ccco1 (stereo not drawn) |  | inconclusive: 18.4 µM [falling, partial curve, poor fit]
COc1cccc(NC(=O)Cn2c(=O)n(CCCCC(=O)NCc3ccccc3Cl)c(=O)c3ccccc32)c1 | inactive: -11.7% | 
Cc1cc(C)cc(NC(=O)c2cc(S(=O)(=O)N3CCc4ccccc43)cn2C)c1 |  | inconclusive: 29.1 µM [falling, single point]
CCCN(C(=O)CSCC(=O)Nc1ccc(OC)cc1)c1c(N)n(Cc2ccccc2)c(=O)[nH]c1=O | inactive: 4.41% | 
Cc1ccc2c(c1)C(c1ccccc1)N(C(=O)CC(C)C)CC(=O)N2 (stereo not drawn) | inactive: -2.85% | 
CCc1ccccc1NC(=O)Cn1ccn(Cc2ccccc2)c(=O)c1=O |  | inconclusive: 23.1 µM [falling, partial curve, poor fit]
COc1ccc(NS(=O)(=O)c2ccc3[nH]c4c(c3c2)CCCCC4)cc1 |  | inconclusive: 29.1 µM [falling, partial curve, poor fit]
COc1cccc(-n2c(SCC(=O)Nc3nc4ccccc4s3)nc3ccccc3c2=O)c1 |  | inconclusive: 8.2 µM [falling, partial curve]
COc1ccc(C2Nc3ccccc3C(=O)N2Cc2ccccc2OC)cc1COc1ccc(NC(C)=O)cc1 (stereo not drawn) | inactive: -5.08% | 
Cc1cc(N)n2ncc(-c3ccccc3)c2n1 | inactive: -8.39% | 
Cn1c2ccccc2c2cnn(CC(=O)NCCCN3CCN(c4ccccc4F)CC3)c(=O)c21 |  | inconclusive: 6.51 µM [activator, partial curve, poor fit]
O=C(c1ccc(Cl)c(Cl)c1)N1CCC(=O)N(C(COCc2ccc(Cl)cc2)Cc2ccccc2)CC1 (stereo not drawn) |  | inconclusive: 29.1 µM [falling, single point]
CC(=O)c1ccc(N2CCN(C(=O)Nc3ccc(C(C)C)cc3)CC2)cc1 |  | inconclusive: 20.6 µM [falling, partial curve, poor fit]
Cc1ccc(-c2csc(NC(=S)NC(=O)/C=C/c3ccco3)n2)cc1 |  | inconclusive: 10.3 µM [falling, partial curve, poor fit]
CCc1nc(C)cn1S(=O)(=O)c1ccc(Cl)c(Cl)c1OC | inactive: -0.261% | 

Compound | activity change, negative = cytotoxicity | Potency
CSc1nc(N)nc(SCCS(=O)(=O)c2ccc(Cl)cc2)c1C#N | inactive: -1.02% [at 1.84 µM] | 
CCOC(=O)c1ccc(NC(=O)Cn2ncc(Cl)c(Cl)c2=O)cc1 | inactive: 0.767% | 
C/C(=N\NC(=O)c1ccc(C)cc1)C1C(=O)c2ccccc2C1=O |  | inconclusive: 16.4 µM [falling, partial curve, poor fit]
COc1ccc(S(=O)(=O)N2CCC(C(=O)NCCc3ccccc3)CC2)cc1OC | inactive: 4.56% | 
Fc1ccc2nc(Nc3nc4cc5c(cc4s3)OCCO5)sc2c1 | inactive: 14.3% | 
O=C(Cn1cnc2c(nc3n2CCCCC3)c1=O)Nc1ccc(F)c(Cl)c1 | inactive: 7.72% | 
O=C(Nc1cccc(Cl)c1)C1CCCN(c2ncnc3c2nc2n3CCCCC2)C1 (stereo not drawn) | inactive: -21.4% | 
O=C1c2ccccc2C(=O)N1CCOc1ccccc1Cl |  | inconclusive: 11.6 µM [activator, partial curve, poor fit]
COc1ccc(N2CCN(c3ccc4nnc(CCC(=O)Nc5ccc(C)cc5)n4n3)CC2)cc1 | inactive: 1.72% | 
CCN(CC)S(=O)(=O)c1ccc2c(c1)N(CC(=O)NCCCN1CCN(c3cc(Cl)ccc3C)CC1)C(=O)CO2 |  | inconclusive: 18.4 µM [falling, partial curve, poor fit]
Cc1ccc(CNC(=O)CS(=O)(=O)Cc2nc(-c3ccccc3C)oc2C)cc1 | inactive: -17.1% | 
CCOC(=O)c1ccc(N=c2sc(C(=O)OC)cc(=O)n2-c2ccc(C(=O)OCC)cc2)cc1 |  | inconclusive: 23.1 µM [falling, partial curve, poor fit]
Cc1cc2c(n1-c1ccc(Cl)cc1)CC(C)(C)CC2=O | inactive: 12.3% | 
COC(=O)c1ccc(C2C(C(=O)c3cc4ccccc4o3)=C(O)C(=O)N2c2cc(C)on2)cc1 (stereo not drawn) |  | inconclusive: 25.9 µM [falling, single point]
COc1ccccc1C1C(C(=O)c2ccc(C)o2)=C(O)C(=O)N1c1cc(C)on1 (stereo not drawn) |  | inconclusive: 7.31 µM [falling, partial curve]
Cc1cccc(NC(=O)C2CCN(c3cnccn3)CC2)c1 | inactive: -2.03% | 
COc1ccc(CNCc2c(C(=O)O)n(Cc3ccc(F)cc3)c3cc(C)ccc23)cc1OC |  | inconclusive: 14.6 µM [falling, partial curve]
COc1ccc(/C=N/NC(=O)c2ccccc2Cl)cc1CSc1nc2ccccc2s1 |  | inconclusive: 4.61 µM [falling, partial curve, poor fit]
CC(=O)C1(O)C(C)CC2C3CCC4CC(O)CCC4(C)C3=CCC21C (stereo not drawn) |  | inconclusive: 29.1 µM [falling, single point]
CCC1CCCN1Cn1cnc2c([nH]c3ccccc32)c1=O (stereo not drawn) | inactive: -1.37% | 
Cc1ccc2cccc(NC(=O)c3cccc4c(Br)cccc34)c2n1 | inactive: 7.37% | 
O=C(c1cc2nc(-c3cccs3)cc(C(F)(F)F)n2n1)N1CCCc2ccccc21 | inactive: -17.2% | 
C/C(=N\NC(=O)c1ccccc1)c1cc2cc([N+](=O)[O-])ccc2oc1=O |  | inconclusive: 13 µM [falling, partial curve, poor fit]

Among those listed so far, these contain a thiophene ring, fused or not.
Compound | activity change, negative = cytotoxicity | Potency
OCCCNc1ncnc2sc(-c3ccccc3)cc12 | inactive: 0.916% | 
CCOC(=O)c1cc(-c2ccccc2)sc1NC(=O)COC(=O)c1ccc(Cl)c(S(N)(=O)=O)c1 |  | inconclusive: 23.1 µM [falling, single point]
CC(=O)c1ccc(Cc2ncc(C(F)(F)F)cc2Cl)s1 |  | inconclusive: 14.6 µM [activator, partial curve, poor fit]
Cc1ccc(C(C(=O)NCc2ccccc2)N(Cc2cccs2)C(=O)c2ccc3c(c2)OCCO3)cc1 (stereo not drawn) |  | inconclusive: 10.3 µM [falling, partial curve, poor fit]
O=C(c1cc2nc(-c3cccs3)cc(C(F)(F)F)n2n1)N1CCCc2ccccc21 | inactive: -17.2% | 
